Measurements as given in article doi:10.1101/2024.05.06.590855.
Results are given in words; binding and its absence hold for the method and conditions named. Binding seen in cells or lysates may run through a third protein. These calls come from enrichment with a bait or labelling near it, and not all partners need be listed.

Sequences of proteins named here, by UniProt entry; tags and fusion partners are left off.
UniProt P70288: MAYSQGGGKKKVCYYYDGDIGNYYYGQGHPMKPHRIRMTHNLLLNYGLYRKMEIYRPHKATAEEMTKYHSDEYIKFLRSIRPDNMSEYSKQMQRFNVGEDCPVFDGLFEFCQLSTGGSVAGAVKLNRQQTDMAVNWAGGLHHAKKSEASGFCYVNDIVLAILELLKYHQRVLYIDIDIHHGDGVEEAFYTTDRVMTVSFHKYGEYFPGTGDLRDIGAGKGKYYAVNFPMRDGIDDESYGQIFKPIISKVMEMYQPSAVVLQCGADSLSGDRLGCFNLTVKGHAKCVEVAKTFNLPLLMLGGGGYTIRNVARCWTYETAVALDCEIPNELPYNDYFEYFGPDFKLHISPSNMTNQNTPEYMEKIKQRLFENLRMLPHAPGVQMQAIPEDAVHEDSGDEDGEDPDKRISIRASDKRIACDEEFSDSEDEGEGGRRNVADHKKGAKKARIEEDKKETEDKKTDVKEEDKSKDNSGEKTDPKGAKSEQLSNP
UniProt O09106: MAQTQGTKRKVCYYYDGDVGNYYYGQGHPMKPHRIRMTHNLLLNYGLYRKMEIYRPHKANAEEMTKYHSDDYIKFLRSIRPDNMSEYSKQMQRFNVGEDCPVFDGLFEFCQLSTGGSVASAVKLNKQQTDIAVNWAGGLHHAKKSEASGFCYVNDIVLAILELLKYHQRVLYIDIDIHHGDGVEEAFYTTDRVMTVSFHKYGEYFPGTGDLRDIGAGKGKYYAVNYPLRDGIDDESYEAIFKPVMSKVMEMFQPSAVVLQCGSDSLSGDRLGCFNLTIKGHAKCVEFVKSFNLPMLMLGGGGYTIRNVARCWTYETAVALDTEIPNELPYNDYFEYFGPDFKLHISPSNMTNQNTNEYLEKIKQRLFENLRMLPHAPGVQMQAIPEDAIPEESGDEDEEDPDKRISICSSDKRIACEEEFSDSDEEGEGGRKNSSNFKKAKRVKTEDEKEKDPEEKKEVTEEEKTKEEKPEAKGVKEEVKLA
UniProt Q8CHY6: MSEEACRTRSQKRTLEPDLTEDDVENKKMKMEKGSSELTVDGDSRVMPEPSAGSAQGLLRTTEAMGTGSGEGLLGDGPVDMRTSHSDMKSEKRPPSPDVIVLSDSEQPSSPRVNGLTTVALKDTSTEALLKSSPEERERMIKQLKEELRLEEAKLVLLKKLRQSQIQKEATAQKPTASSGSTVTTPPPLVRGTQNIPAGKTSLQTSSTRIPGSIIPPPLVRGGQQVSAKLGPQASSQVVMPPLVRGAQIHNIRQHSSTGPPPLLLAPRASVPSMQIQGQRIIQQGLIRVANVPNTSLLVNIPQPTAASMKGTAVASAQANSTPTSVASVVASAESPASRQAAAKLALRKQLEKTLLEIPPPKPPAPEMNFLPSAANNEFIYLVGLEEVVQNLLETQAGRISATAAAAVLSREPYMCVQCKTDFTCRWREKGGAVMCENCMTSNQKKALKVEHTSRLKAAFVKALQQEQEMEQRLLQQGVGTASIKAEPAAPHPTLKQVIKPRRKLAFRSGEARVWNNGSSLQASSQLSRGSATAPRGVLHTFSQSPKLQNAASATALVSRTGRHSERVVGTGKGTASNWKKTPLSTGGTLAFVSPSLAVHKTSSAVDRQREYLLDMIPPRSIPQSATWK
UniProt Q8VHR5: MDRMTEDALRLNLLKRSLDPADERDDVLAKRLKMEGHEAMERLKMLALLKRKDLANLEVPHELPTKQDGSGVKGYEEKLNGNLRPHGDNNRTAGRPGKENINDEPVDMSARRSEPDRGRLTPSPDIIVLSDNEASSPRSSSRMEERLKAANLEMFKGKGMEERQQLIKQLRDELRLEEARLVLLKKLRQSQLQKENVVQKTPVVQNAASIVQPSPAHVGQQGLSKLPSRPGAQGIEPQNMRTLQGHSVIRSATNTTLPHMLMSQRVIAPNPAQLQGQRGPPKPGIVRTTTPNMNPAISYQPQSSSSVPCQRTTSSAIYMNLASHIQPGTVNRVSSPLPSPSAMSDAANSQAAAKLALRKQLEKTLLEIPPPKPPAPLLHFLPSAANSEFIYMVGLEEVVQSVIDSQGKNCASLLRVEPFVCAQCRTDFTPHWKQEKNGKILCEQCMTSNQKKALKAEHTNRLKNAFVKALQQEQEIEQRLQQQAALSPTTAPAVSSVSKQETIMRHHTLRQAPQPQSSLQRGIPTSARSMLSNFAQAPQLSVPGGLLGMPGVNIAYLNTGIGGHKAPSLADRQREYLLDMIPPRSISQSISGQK
UniProt Q924K8: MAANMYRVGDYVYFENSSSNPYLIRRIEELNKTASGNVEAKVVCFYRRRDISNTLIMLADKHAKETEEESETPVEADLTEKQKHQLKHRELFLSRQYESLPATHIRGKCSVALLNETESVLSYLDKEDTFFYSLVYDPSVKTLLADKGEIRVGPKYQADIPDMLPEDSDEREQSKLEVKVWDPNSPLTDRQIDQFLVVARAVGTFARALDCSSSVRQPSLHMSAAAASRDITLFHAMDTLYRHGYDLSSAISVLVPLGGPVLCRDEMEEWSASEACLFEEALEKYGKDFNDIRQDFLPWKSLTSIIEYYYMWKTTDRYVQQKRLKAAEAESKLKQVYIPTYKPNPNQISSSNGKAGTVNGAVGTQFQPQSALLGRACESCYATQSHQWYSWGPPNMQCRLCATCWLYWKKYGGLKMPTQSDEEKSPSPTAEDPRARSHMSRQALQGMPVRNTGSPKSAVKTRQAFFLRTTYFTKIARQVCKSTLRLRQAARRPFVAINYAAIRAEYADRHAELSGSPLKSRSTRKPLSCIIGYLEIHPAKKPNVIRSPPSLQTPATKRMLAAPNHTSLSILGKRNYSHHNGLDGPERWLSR
UniProt Q9R190: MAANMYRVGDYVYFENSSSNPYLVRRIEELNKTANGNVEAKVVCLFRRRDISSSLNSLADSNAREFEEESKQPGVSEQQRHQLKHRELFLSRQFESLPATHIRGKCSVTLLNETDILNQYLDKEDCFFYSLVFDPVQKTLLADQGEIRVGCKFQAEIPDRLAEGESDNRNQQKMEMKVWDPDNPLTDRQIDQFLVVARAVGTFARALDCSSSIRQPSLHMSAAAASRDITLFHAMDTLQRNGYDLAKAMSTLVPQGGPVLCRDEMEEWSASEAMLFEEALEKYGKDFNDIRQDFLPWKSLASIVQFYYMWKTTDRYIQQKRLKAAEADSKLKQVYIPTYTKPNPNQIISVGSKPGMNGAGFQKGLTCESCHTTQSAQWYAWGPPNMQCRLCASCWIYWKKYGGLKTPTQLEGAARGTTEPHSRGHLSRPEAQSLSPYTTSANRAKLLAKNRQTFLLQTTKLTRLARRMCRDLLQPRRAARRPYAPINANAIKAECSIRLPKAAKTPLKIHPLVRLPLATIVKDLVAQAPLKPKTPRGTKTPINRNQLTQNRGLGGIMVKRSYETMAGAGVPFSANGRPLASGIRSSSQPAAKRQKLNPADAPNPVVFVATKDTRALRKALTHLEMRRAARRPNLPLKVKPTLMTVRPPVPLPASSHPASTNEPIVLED
UniProt Q8K4B0: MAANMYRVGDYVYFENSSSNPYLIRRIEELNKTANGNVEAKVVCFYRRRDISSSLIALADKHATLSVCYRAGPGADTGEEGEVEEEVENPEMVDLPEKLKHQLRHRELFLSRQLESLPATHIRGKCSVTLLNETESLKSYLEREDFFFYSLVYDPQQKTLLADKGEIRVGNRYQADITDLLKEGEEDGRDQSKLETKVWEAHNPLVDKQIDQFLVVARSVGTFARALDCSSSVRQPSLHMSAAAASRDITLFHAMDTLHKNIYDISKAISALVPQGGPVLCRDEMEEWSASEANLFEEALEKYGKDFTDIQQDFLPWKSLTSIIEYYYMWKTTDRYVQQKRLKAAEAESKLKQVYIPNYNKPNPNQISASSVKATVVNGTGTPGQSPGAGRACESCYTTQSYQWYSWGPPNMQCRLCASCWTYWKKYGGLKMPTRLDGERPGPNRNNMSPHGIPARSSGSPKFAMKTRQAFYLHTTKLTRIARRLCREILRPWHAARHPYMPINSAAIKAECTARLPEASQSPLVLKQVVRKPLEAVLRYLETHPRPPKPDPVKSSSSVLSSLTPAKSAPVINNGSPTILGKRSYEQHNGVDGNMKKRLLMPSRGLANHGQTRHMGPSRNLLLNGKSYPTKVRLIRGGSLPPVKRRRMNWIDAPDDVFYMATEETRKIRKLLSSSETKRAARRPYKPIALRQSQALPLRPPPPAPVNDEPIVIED
UniProt Q9Z2E1: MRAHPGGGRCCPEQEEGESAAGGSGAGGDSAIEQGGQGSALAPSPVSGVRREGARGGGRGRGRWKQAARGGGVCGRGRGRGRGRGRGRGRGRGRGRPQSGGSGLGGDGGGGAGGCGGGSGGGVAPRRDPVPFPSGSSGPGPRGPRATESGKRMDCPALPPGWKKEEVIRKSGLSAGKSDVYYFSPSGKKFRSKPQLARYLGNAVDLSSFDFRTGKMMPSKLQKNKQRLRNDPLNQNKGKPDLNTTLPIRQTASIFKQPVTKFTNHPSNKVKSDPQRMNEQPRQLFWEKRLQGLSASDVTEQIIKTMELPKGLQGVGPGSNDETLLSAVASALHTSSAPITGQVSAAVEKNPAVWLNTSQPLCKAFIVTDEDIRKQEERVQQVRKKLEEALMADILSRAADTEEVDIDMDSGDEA

Key:
[1] = biological target: histone deacetylase 2 (HDAC2) (mouse (endogenous in AM-like cells from mouse bone marrow)) (UniProt P70288); assay: affinity purification with mass spectrometry
[2] = biological target: histone deacetylase 1 (HDAC1) (mouse (endogenous in AM-like cells from mouse bone marrow)) (UniProt O09106); assay: affinity purification with mass spectrometry

Row | binding [1] | binding [2] | Substance
1 | binds | binds | GATAD2A (from UniProt Q8CHY6 1-629)
2 |  | binds | GATAD2B (from UniProt Q8VHR5 1-594)
3 | binds | binds | MTA3 (from UniProt Q924K8 1-591)
4 | binds | binds | MTA2 (from UniProt Q9R190 1-668)
5 | binds | binds | MTA1 (from UniProt Q8K4B0 1-715)
6 | binds | binds | MBD2 (from UniProt Q9Z2E1 1-414)
